Our source for the binding values is US6512102.

Chains of the proteins cited; added tags and fusions are not shown. Lines headed by an entry give the natural chain unless they say otherwise; changes in a name come on top.
UniProt P49841: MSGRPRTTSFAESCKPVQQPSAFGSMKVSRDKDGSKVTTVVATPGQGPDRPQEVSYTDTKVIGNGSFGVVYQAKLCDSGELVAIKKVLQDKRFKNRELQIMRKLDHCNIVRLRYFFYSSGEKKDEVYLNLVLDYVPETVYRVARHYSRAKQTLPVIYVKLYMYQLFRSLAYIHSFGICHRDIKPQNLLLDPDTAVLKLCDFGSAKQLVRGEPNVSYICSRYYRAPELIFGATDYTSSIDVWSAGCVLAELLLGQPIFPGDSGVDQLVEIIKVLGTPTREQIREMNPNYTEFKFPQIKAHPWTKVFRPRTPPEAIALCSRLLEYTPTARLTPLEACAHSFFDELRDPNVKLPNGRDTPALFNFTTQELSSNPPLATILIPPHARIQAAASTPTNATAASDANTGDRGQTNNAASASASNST
UniProt Q9JMK2: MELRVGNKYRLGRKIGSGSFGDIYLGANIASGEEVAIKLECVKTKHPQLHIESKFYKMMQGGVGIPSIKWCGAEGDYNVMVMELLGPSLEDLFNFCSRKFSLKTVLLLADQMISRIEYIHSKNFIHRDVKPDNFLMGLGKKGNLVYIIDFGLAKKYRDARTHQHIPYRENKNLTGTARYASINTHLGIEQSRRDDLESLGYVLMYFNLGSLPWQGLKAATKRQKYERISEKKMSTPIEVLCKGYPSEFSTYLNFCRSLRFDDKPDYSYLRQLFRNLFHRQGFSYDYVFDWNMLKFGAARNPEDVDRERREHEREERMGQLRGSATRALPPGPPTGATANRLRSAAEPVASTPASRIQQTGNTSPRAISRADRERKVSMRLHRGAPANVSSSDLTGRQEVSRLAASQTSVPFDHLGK

No constants are given. Whether binding was seen depends on the method and setting. Binding seen in cells or lysates may run through a third protein. Some binding calls cover weakened binding; strength is not graded here.

In assay [1] the target is GSK3 (huGSK3myc) (human) (UniProt P49841). Briefly: co-immunoprecipitation from cells cotransfected with CKIε and GSK3.
The target is the same in assay [2]. Briefly: interaction in vivo (co-immunoprecipitation from transfected cells).

Turning to “mouse casein kinase I epsilon, HA-tagged (CKIε-HA) (from UniProt Q9JMK2 1-416) (enzyme)”, the binding result with GSK3 (huGSK3myc) (human) [1] and in the assay with GSK3 (huGSK3myc) (human) [2] was “binds” in each case.
